Our source for the binding values is paper doi:10.1101/495762 (bioRxiv, 2018).

Residue numbers refer to the chain shown, from its start. Names and notes keep the numbering of the source. Read-outs that look alike come from different tables or passages of the source. No constants are given. Whether binding was seen depends on the method and setting. Binding seen in cells or lysates may run through a third protein. Some entries that bind do so weakly or less than the wild type. For part of these data: Where a sequence is shown, tags or fusion partners need not be part of it.

Holding throughout (assay): cross-linking
In test [1] the target is T1, Smc3(R1222C) (S. cerevisiae) (UniProt P47037).
T1 sequence: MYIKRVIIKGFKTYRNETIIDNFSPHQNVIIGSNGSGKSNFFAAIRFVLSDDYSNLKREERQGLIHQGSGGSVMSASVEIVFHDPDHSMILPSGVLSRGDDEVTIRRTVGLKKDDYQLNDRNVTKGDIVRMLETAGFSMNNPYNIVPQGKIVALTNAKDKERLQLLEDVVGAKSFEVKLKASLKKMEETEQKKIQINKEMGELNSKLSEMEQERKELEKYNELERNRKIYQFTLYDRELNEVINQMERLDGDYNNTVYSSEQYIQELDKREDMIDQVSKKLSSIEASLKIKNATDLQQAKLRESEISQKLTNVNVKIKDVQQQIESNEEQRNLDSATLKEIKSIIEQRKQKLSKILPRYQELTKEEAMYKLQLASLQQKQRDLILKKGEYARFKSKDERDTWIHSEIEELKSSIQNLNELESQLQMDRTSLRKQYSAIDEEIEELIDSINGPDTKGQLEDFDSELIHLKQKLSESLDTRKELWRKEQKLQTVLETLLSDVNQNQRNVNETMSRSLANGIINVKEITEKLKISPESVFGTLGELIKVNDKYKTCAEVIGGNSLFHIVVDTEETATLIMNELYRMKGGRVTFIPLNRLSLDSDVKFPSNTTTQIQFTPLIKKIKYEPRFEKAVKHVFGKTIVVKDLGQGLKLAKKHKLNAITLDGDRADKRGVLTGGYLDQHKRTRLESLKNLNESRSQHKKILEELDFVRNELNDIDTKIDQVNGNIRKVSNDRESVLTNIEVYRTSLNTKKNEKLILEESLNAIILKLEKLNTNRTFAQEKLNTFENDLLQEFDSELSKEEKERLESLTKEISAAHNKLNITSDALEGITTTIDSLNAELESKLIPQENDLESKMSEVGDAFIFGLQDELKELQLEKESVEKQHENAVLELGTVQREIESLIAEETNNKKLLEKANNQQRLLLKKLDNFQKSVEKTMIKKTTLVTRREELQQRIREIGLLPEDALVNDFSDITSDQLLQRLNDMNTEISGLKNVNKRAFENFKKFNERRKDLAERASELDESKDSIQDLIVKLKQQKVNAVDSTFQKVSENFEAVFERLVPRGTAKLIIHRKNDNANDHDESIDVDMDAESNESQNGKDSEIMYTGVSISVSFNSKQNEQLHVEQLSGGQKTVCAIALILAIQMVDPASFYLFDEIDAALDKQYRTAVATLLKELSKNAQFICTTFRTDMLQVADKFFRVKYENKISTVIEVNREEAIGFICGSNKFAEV

The target in test [2] is T2, Smc3(R1222C)-PK6 (S. cerevisiae) (UniProt P47037).
T2 sequence: T1 sequence

Test [3] addresses T1, Smc3(R1222C) (S. cerevisiae). This is another data set of the same source.
The target of test [4] is T3, Smc3(K160C, E570C) (S. cerevisiae) (UniProt P47037).
T3 sequence: T1 sequence with K160C, E570C, C1222R

For test [5], the target named is T4, Smc3(K160C)-PK6 (S. cerevisiae) (UniProt P47037).
T4 sequence: T1 sequence with K160C, C1222R

The target of test [6] is T5, Smc3(K160C) (S. cerevisiae) (UniProt P47037).
T5 sequence: T1 sequence with K160C, C1222R

B1: Smc1(N1192C)-HA6 (natural protein, S. cerevisiae, UniProt P32908 1-1225, looked up)
chain: MGRLVGLELSNFKSYRGVTKVGFGESNFTSIIGPNGSGKSNMMDAISFVLGVRSNHLRSNILKDLIYRGVLNDENSDDYDNEGAASSNPQSAYVKAFYQKGNKLVELMRIISRNGDTSYKIDGKTVSYKDYSIFLENENILIKAKNFLVFQGDVEQIAAQSPVELSRMFEEVSGSIQYKKEYEELKEKIEKLSKSATESIKNRRRIHGELKTYKEGINKNEEYRKQLDKKNELQKFQALWQLYHLEQQKEELTDKLSALNSEISSLKGKINNEMKSLQRSKSSFVKESAVISKQKSKLDYIFKDKEKLVSDLRLIKVPQQAAGKRISHIEKRIESLQKDLQRQKTYVERFETQLKVVTRSKEAFEEEIKQSARNYDKFKLNENDLKTYNCLHEKYLTEGGSILEEKIAVLNNDKREIQEELERFNKRADISKRRITEELSITGEKLDTQLNDLRVSLNEKNALHTERLHELKKLQSDIESANNQEYDLNFKLRETLVKIDDLSANQRETMKERKLRENIAMLKRFFPGVKGLVHDLCHPKKEKYGLAVSTILGKNFDSVIVENLTVAQECIAFLKKQRAGTASFIPLDTIETELPTLSLPDSQDYILSINAIDYEPEYEKAMQYVCGDSIICNTLNIAKDLKWKKGIRGKLVTIEGALIHKAGLMTGGISGDANNRWDKEEYQSLMSLKDKLLIQIDELSNGQRSNSIRAREVENSVSLLNSDIANLRTQVTQQKRSLDENRLEIKYHNDLIEKEIQPKITELKKKLDDLENTKDNLVKEKEALQNNIFKEFTSKIGFTIKEYENHSGELMRQQSKELQQLQKQILTVENKLQFETDRLSTTQRRYEKAQKDLENAQVEMKSLEEQEYAIEMKIGSIESKLEEHKNHLDELQKKFVTKQSELNSSEDILEDMNSNLQVLKRERDGIKEDIEKFDLERVTALKNCKISNINIPISSETTIDDLPISSTDNEAITISNSIDINYKGLPKKYKENNTDSARKELEQKIHEVEEILNELQPNARALERYDEAEGRFEVINNETEQLKAEEKKILNQFLKIKKKRKELFEKTFDYVSDHLDAIYRELTKNPNSNVELAGGNASLTIEDEDEPFNAGIKYHATPPLKRFKDMEYLSGGEKTVAALALLFAINSYQPSPFFVLDEVDAALDITNVQRIAAYIRRHRNPDLQFIVISLKCTMFEKSDALVGVYRQQQENSSKIITLDLSNYAE
In the case of B1, the binding entry in test [1], in test [2] and in test [3] was “binds” each time.

B2: Smc1(S161C, K639C)-HA (protein, UniProt P32908 1-1225)
chain: B1 chain with S161C, K639C, C1192N
B2: in test [4], the binding result is reported as “binds”.

B3: Smc1(S161C)-HA6 (natural protein, S. cerevisiae, UniProt P32908 1-1225, looked up)
chain: B1 chain with S161C, C1192N
On to B3, for which the binding result in test [5] and in test [6] was “binds” throughout.
